Residue numbers refer to the chain shown, from its start. Only a part is listed here, and it is no random draw. Calls are pooled over several reports, among them a noisy single-well screen. The list shows a part of the results.
Experiments:
Settings in all cases: stereoisomer not certain
OR4S2 (Homo sapiens) = molecular target: T1, OR4S2 (Homo sapiens) (UniProt Q8NH73)
T1 sequence (whole entry): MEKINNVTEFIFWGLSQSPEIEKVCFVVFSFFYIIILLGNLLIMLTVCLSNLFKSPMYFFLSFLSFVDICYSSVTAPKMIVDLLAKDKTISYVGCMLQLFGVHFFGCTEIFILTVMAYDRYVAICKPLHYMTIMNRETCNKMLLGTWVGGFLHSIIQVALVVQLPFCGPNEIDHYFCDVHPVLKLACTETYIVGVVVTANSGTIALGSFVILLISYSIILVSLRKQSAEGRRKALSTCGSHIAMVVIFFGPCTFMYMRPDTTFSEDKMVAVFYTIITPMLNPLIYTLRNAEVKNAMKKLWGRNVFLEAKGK
How it was run: (§1)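 Values were gathered from published papers (main text and supplementary material), with extra details requested from the original authors when needed, and checked for typos and inconsistencies. Each receptor–molecule pair is called responsive (active) if the original authors judged the measured signal statistically different from baseline, and non-responsive (inactive) otherwise. Assay methods varied by source, often transient mammalian cell-line luciferase assays. Recorded details include cell line, G-protein, co-transfected protein and tags.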

OR4X1 = test system: T2, OR4X1
T2 sequence (whole entry): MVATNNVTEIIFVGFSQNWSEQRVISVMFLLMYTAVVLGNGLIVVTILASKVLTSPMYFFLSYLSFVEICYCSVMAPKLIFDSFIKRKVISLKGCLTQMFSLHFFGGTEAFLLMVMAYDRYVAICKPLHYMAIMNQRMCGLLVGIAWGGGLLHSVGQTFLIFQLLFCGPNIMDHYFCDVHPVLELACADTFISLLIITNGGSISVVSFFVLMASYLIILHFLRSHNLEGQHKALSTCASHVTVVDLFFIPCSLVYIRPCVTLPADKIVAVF
How it was run: as §1

OR4X2 (Homo sapiens) = molecular target: T3, OR4X2 (Homo sapiens) (UniProt Q8NGF9)
T3 sequence (whole entry): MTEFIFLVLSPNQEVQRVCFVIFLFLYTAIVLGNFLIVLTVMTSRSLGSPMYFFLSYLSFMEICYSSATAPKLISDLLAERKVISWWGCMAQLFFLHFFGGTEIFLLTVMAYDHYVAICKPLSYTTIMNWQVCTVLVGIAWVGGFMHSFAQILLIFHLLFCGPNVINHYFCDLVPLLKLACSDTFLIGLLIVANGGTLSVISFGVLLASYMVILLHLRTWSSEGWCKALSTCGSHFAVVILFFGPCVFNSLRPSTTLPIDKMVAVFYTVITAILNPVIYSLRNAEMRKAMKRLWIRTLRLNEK
How it was run: as §1

OR51A2 (Homo sapiens) = molecular target: T4, OR51A2 (Homo sapiens) (UniProt Q8NGJ7)
T4 sequence (whole entry): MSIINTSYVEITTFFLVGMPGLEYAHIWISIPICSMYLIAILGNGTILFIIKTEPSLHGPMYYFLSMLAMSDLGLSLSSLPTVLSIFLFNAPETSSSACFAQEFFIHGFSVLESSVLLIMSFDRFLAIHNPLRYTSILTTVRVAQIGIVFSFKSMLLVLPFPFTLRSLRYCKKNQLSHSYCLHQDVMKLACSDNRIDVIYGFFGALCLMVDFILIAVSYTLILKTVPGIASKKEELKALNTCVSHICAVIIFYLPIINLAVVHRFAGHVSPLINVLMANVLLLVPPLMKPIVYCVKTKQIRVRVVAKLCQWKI
How it was run: as §1

OR51B2 (Homo sapiens) = molecular target: T5, OR51B2 (Homo sapiens) (UniProt Q9Y5P1)
T5 sequence (whole entry): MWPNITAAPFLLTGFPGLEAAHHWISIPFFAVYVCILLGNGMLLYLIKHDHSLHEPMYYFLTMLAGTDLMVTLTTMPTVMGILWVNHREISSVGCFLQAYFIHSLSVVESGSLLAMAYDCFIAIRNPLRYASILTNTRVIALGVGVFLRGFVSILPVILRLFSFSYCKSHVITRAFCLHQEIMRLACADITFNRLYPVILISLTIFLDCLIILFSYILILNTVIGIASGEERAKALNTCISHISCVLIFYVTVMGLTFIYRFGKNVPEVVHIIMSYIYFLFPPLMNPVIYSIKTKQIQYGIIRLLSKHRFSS
How it was run: as §1

OR51D1 (Homo sapiens) = molecular target: T6, OR51D1 (Homo sapiens) (UniProt Q8NGF3)
T6 sequence (whole entry): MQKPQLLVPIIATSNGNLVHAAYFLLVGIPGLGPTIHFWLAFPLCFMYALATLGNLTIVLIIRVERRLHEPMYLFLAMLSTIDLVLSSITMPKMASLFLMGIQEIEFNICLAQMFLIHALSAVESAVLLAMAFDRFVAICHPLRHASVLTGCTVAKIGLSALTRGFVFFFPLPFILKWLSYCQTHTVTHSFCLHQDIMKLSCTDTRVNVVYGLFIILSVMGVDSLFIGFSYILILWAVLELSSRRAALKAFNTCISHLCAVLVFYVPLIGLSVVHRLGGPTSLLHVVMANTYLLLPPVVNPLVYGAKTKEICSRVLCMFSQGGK
How it was run: as §1

OR51E1 (Homo sapiens) [1] = molecular target: T7, OR51E1 (Homo sapiens) (UniProt Q8TCB6)
T7 sequence (whole entry): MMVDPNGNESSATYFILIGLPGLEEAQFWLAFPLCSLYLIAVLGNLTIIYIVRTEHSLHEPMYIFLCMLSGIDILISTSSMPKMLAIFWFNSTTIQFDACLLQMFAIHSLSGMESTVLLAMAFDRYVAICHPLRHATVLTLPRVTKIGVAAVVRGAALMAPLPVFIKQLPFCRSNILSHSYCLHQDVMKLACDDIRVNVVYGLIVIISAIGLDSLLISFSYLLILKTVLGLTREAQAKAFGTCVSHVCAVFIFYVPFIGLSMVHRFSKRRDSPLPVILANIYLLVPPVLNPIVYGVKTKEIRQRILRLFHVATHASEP
How it was run: as §1

OR51E2 (Homo sapiens) = molecular target: T8, OR51E2 (Homo sapiens) (UniProt Q9H255)
T8 sequence (whole entry): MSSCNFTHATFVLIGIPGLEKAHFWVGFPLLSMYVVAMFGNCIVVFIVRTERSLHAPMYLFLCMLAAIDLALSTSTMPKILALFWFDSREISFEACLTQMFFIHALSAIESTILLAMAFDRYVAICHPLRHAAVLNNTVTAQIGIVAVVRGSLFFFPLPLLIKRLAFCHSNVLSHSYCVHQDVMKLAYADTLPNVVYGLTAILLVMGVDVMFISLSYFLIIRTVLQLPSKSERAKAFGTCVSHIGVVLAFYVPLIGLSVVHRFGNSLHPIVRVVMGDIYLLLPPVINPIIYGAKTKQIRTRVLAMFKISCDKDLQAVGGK
How it was run: as §1

OR51G1 (Homo sapiens) = molecular target: T9, OR51G1 (Homo sapiens) (UniProt Q8NGK1)
T9 sequence (whole entry): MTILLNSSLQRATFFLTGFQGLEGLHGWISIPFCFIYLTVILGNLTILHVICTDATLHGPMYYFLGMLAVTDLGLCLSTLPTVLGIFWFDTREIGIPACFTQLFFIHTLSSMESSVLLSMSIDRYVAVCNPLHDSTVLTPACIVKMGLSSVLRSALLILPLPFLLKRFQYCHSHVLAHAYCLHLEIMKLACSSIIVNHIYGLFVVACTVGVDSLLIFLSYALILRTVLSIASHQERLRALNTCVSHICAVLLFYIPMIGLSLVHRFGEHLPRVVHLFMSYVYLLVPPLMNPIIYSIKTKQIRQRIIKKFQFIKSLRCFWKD
How it was run: as §1

OR51H1 (Homo sapiens) = molecular target: T10, OR51H1 (Homo sapiens) (UniProt Q8NH63)
T10 sequence (whole entry): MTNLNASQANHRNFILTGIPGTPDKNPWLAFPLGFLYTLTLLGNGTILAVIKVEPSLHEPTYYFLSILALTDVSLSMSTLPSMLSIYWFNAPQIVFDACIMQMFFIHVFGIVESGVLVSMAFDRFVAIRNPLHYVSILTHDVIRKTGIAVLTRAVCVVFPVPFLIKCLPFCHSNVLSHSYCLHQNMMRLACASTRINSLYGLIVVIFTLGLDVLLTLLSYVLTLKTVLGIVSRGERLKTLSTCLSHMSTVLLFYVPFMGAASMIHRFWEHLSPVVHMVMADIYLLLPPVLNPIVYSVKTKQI
How it was run: as §1

OR51B5 (Homo sapiens) = molecular target: T11, OR51B5 (Homo sapiens) (UniProt Q9H339)
T11 sequence (whole entry): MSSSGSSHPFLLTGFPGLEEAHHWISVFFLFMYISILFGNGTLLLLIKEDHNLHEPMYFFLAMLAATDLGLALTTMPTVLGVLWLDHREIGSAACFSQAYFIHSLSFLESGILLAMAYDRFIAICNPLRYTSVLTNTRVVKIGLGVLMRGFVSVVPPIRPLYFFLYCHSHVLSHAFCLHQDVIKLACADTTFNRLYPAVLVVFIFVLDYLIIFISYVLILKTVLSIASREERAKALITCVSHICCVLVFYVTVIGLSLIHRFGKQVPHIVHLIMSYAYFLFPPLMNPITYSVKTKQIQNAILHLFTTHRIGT
How it was run: as §1

OR51A4 (Homo sapiens) = molecular target: T12, OR51A4 (Homo sapiens) (UniProt Q8NGJ6)
T12 sequence (whole entry): T4 sequence (whole entry) with G59E, T94I, S97N, S167N, P227L, E235Q, G267R, M288T, K289N, W311R
How it was run: as §1

OR51E1 (Homo sapiens) [2] = molecular target: T13, OR51E1 (Homo sapiens) (UniProt Q8TCB6); remark: listed apart in the source
T13 sequence (whole entry): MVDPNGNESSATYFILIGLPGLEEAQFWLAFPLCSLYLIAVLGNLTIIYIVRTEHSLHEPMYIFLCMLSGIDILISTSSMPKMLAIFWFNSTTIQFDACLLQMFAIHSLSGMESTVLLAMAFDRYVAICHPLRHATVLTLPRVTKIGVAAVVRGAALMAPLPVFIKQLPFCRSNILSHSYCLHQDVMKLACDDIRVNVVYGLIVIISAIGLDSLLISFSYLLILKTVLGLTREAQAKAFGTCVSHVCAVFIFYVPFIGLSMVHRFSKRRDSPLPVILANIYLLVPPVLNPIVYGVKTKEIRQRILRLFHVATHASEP
How it was run: as §1

OR4X1 (Homo sapiens) = OR4X1 (Homo sapiens) (UniProt Q8NH49)
How it was run: as §1

OR51F1 (Homo sapiens) = molecular target: T14, OR51F1 (Homo sapiens) (UniProt A6NGY5)
T14 sequence (whole entry): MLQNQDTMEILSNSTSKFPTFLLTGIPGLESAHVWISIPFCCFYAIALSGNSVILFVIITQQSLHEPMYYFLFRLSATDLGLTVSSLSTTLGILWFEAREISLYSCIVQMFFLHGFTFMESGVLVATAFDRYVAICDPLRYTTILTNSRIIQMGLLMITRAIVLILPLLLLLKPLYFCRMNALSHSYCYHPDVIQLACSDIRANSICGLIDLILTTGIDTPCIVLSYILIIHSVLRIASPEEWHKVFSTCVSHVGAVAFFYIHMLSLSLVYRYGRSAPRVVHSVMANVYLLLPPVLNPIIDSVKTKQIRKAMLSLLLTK
How it was run: as §1

OR51F2 (Homo sapiens) = molecular target: T15, OR51F2 (Homo sapiens) (UniProt Q8NH61)
T15 sequence (whole entry): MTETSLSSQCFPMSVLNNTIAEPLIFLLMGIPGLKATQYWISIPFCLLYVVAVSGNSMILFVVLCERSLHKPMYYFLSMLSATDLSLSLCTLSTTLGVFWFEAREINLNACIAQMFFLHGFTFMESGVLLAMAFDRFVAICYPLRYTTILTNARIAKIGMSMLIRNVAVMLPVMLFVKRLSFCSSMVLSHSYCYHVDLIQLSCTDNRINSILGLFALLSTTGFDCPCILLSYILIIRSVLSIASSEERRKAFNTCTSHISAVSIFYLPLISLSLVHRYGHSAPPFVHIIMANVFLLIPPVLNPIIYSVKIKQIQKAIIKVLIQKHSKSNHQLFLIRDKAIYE
How it was run: as §1

OR51G2 (Homo sapiens) = molecular target: T16, OR51G2 (Homo sapiens) (UniProt Q8NGK0)
T16 sequence (whole entry): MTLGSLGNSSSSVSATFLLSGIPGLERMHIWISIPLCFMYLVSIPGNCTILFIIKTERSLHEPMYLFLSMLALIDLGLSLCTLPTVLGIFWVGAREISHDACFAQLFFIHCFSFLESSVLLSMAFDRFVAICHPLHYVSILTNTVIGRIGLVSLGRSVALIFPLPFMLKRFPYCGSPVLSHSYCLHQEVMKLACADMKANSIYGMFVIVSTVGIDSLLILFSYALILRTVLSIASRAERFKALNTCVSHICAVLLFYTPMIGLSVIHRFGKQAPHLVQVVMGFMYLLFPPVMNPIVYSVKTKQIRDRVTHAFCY
How it was run: as §1

Measured: odorant receptor agonist call

COc1cc(C)ccc1O
active: OR4X1
inactive: OR4S2 (Homo sapiens) | OR4X2 (Homo sapiens) | OR51A2 (Homo sapiens) | OR51B2 (Homo sapiens) | OR51D1 (Homo sapiens) | OR51E1 (Homo sapiens) [1] | OR51E2 (Homo sapiens) | OR51G1 (Homo sapiens) | OR51H1 (Homo sapiens)

CC1CCC(C(C)C)C(O)C1 (centres undefined)
active: OR51E1 (Homo sapiens) [1]
not listed: OR51A4 (Homo sapiens) | OR51E1 (Homo sapiens) [2] | OR4X1 (Homo sapiens) | OR51F1 (Homo sapiens) | OR51F2 (Homo sapiens) | OR51G2 (Homo sapiens)
inactive: all other assays above

COc1cc(C=O)ccc1O
not listed: OR51A4 (Homo sapiens) | OR51E1 (Homo sapiens) [2] | OR4X1 (Homo sapiens) | OR51F1 (Homo sapiens) | OR51F2 (Homo sapiens) | OR51G2 (Homo sapiens)
inactive: all other assays above

CCCCCCCCC=O
inactive: OR51A4 (Homo sapiens) | OR51B5 (Homo sapiens) | OR51E1 (Homo sapiens) [2] | OR51E2 (Homo sapiens)

C=C(C)C1CC=C(C)C(=O)C1 (centres undefined)
inactive: OR51B5 (Homo sapiens) | OR51E1 (Homo sapiens) [2] | OR51E2 (Homo sapiens)

CC(=O)c1ccccc1
active: OR4S2 (Homo sapiens) | OR4X2 (Homo sapiens) | OR51E1 (Homo sapiens) [1]
inactive: OR4X1 | OR51D1 (Homo sapiens) | OR51E1 (Homo sapiens) [2] | OR51E2 (Homo sapiens) | OR51G1 (Homo sapiens) | OR51H1 (Homo sapiens)

CC(C)(O)CCCC1=CCC(C=O)CC1 (centres undefined)
inactive: OR51A2 (Homo sapiens) | OR51B2 (Homo sapiens) | OR51B5 (Homo sapiens) | OR51E1 (Homo sapiens) [2] | OR51E2 (Homo sapiens)

CC12C=CCC1C1CCC3CC(=O)CCC3(C)C1CC2 (centres undefined)
not listed: OR4S2 (Homo sapiens) | OR51D1 (Homo sapiens) | OR51E2 (Homo sapiens) | OR51G1 (Homo sapiens) | OR51H1 (Homo sapiens) | OR51B5 (Homo sapiens)
inactive: all other assays above
